Source: patent US20160030407A1, “Method of Treating Inflammatory Lung Disease” (priority 2010, published 2016)
Values joined by “and” are separate entries in the source; they are usually repeats but may differ in a detail not shown here. Identical values can stand only once. The source gives many values for each of these; only a part stands here.

Assay: Plasma pharmacokinetics after oral multi-dose anatabine polacrilex
Format: in vivo, Sprague-Dawley rats
Settings: for Cp, min (2): after dose 2, mean; for Cp, min (1): after dose 1, mean; for Anatabine Concentration in rat plasma: individual animals
Procedure: This study consisted of two groups of 8 animals each, 4 males and 4 females.
The vehicle was sterile phosphate buffered saline (PBS) (Amresco). […] Two formulations were prepared; one for each of the two treatment groups. The test compound was formulated for each treatment group just prior to the first dose administration and constantly stirred until dosing was completed (Table 37). Four aliquots of each dose level formulation were collected and stored at −80° C.
The animals were weighed prior to dosing and received three doses p.o. of test compound at a volume of 5 mL/kg. Blood was collected via the venus plexus (retro-orbital) into tubes containing (K2) EDTA. No more than 0.5 mL was collected per time point.
Sample preparation. Plasma samples were treated with three volumes of methanol containing internal standard at 1 μM (R,S)-Antabine-2,4,5,6-d4), incubated 10 min at 4° C., and centrifuged. The amount of the test agent in the supernatant was determined by LC/MS/MS.
Analysis. Samples were analyzed by LC/MS/MS using an Agilent 6410 mass spectrometer coupled with an Agilent 1200 high pressure liquid chromatography (HPLC) and a CTC PAL chilled autosampler, all controlled by MassHunter software (Agilent). After separation on a Hydrophilic interaction liquid chromatography (HILIC) HPLC column (Sepax) using an acetonitrile-ammonium acetate/acetic acid gradient system, peaks were analyzed by mass spectrometry (MS) using ESI ionization in multiple reaction monitoring (MRM) mode. MassHunter software was used to calculate the concentration of the test compounds in samples from the peak area using the appropriate calibration curves.
Descriptive statistics were calculated for all pharmacokinetic parameters. Elimination half-lives (t1/2) were calculated by linear regression of logarithmically transformed plasma concentration data for each period between doses and following the final dose.
Total areas under the plasma concentration curves (AUC) and under the first moment curves (AUMC) were calculated using linear trapezoidal summation across all concentration time points as well as for intervals between each dose administration and following the final dose. […] Mean absorption times (MAT) were calculated according to the following relation: […]

[1] = Anatabine 6.0 mg/kg, female rats

With `C1=CCC(c2cccnc2)NC1` (racemic) [Anatabine, 1,2,3,6-tetrahydro-[2,3′]bipyridinyl] the “Cp, min (2)” value (Anatabine 0.6 mg/kg, female rats) was 7.5 ng/mL, the “Cp, min (1)” value (Anatabine 0.6 mg/kg, male rats) was 11.0 ng/mL and the “Cp, min (1)” value [1] was 52 ng/mL. The “Cp, min (2)” value [1] was 180 ng/mL and 180.0 ng/mL, the “Cp, min (1)” value (Anatabine 6.0 mg/kg, male rats) was 75 ng/mL and the “Cp, min (2)” value (Anatabine 6.0 mg/kg, male rats) was 93 ng/mL. For the same compound, the “Anatabine Concentration in rat plasma” value (dose 0.2 mg/kg, female, 30 min) was 34 ng/mL (2×) and 42 ng/mL and 38 ng/mL, the “Anatabine Concentration in rat plasma” value (dose 0.2 mg/kg, female, 60 min) was 29 ng/mL and 33 ng/mL and 47 ng/mL and 25 ng/mL and the “Anatabine Concentration in rat plasma” value (dose 0.2 mg/kg, female, 235 min) was 4 ng/mL and 18 ng/mL and 6 ng/mL and 13 ng/mL. The “Anatabine Concentration in rat plasma” value (dose 0.2 mg/kg, female, 270 min) was 14 ng/mL and 11 ng/mL and 17 ng/mL and 51 ng/mL, the “Anatabine Concentration in rat plasma” value (dose 0.2 mg/kg, female, 300 min) was 18 ng/mL and 31 ng/mL and 25 ng/mL and 44 ng/mL and the “Anatabine Concentration in rat plasma” value (dose 0.2 mg/kg, female, 475 min) was 7 ng/mL (2×) and 6 ng/mL and 10 ng/mL. For the same compound, the “Anatabine Concentration in rat plasma” value (dose 0.2 mg/kg, female, 540 min) was 24 ng/mL and 44 ng/mL and 29 ng/mL (2×), the “Anatabine Concentration in rat plasma” value (dose 0.2 mg/kg, female, 600 min) was 12 ng/mL and 18 ng/mL and 20 ng/mL and 45 ng/mL and the “Anatabine Concentration in rat plasma” value (dose 0.2 mg/kg, female, 720 min) was 18 ng/mL and 15 ng/mL (2×) and 7 ng/mL. For the same compound, the “Anatabine Concentration in rat plasma” value (dose 0.2 mg/kg, male, 30 min) was 29 ng/mL and 37 ng/mL and 34 ng/mL, the “Anatabine Concentration in rat plasma” value (dose 0.2 mg/kg, male, 60 min) was 32 ng/mL and 34 ng/mL and 24 ng/mL and 26 ng/mL and the “Anatabine Concentration in rat plasma” value (dose 0.2 mg/kg, male, 235 min) was 11 ng/mL and 13 ng/mL and 9 ng/mL. For the same compound, the “Anatabine Concentration in rat plasma” value (dose 0.2 mg/kg, male, 270 min) was 35 ng/mL and 31 ng/mL and 20 ng/mL and 26 ng/mL, the “Anatabine Concentration in rat plasma” value (dose 0.2 mg/kg, male, 300 min) was 22 ng/mL (2×) and 26 ng/mL and 29 ng/mL and the “Anatabine Concentration in rat plasma” value (dose 0.2 mg/kg, male, 475 min) was 9 ng/mL and 18 ng/mL and 19 ng/mL. For the same compound, the “Anatabine Concentration in rat plasma” value (dose 0.2 mg/kg, male, 540 min) was 4 ng/mL and 28 ng/mL and 41 ng/mL and 43 ng/mL, the “Anatabine Concentration in rat plasma” value (dose 0.2 mg/kg, male, 600 min) was 17 ng/mL and 35 ng/mL and 34 ng/mL and the “Anatabine Concentration in rat plasma” value (dose 0.2 mg/kg, male, 720 min) was 5 ng/mL and 12 ng/mL and 19 ng/mL. For the same compound, the “Anatabine Concentration in rat plasma” value (dose 2 mg/kg, female, 235 min) was 75 ng/mL and 36 ng/mL and 23 ng/mL and 72 ng/mL, the “Anatabine Concentration in rat plasma” value (dose 2 mg/kg, female, 300 min) was 97 ng/mL and the “Anatabine Concentration in rat plasma” value (dose 2 mg/kg, male, 235 min) was 46 ng/mL and 63 ng/mL and 84 ng/mL. The “Anatabine Concentration in rat plasma” value (dose 2 mg/kg, male, 720 min) was 71 ng/mL.
